# Test results: PubChem BioAssay AID445 (National Center for Advancing Translational Sciences (NCATS), 2006)
# The other results are listed elsewhere or left out. The main result of the screen is listed elsewhere. These columns were measured beside it and carry no call. Most of these compounds were active or inconclusive in the main read-out, so they are no random draw. Potencies come from curve fits of mixed quality, noted in brackets.
# Assay: IkB Signaling
# Conditions: ABC-DLBCL IkBa-CBG/CBR dual luciferase ratio (green luciferase fused to IkBa over red control in OCI-Ly3 lymphoma cells), 4 h
# In short: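 In this assay, an IκBα–CBG68 fusion accumulates when IKK-driven degradation is blocked; native CBR normalizes for cell number. OCI-Ly3 cells were treated 4 h with compound and doxycycline, then green and red light read after Chroma-Glo addition.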
# [1] = measured here: control luc red channel unless noted
# [2] = measured here: IkB-luc green channel
# [3] = measured here: control luc red channel
structure (smiles),measurement,setting,value
CCOC(=O)c1cc(C)n(CC2CCC(C(=O)Nc3ccc(C(C)=O)cc3)CC2)c1C (centres undefined),AC50,[1],"12.6 µM [falling, partial curve]"
COc1ccc(N2CCN(C(=O)c3cccc(-n4c(C)nc5cccnc54)c3)CC2)cc1,AC50,[1],"39.8 µM [falling, single point]"
COc1cc2cc(CNc3ccccc3)c(=O)n(CC(=O)Nc3ccccc3)c2cc1OC,AC50,[1],"31.6 µM [falling, single point]"
Cc1c(C(=O)NCc2ccccc2)oc2ccc(S(=O)(=O)N3CCC4(CC3)OCCO4)cc12,AC50,[1],"12.6 µM [falling, partial curve]"
CCCNS(=O)(=O)c1ccc2nc(NC(=O)c3ccc(F)cc3)sc2c1,AC50,[1],"6.31 µM [falling, partial curve]"
CSc1ccc(CNC(=O)C2CCCN(S(=O)(=O)N(C)c3ccc(F)cc3)C2)cc1 (centres undefined),AC50,[1],"12.6 µM [falling, partial curve]"
CCc1ccc2c(c1)c(=O)c(S(=O)(=O)c1ccc(Cl)cc1)cn2CC,AC50,[1],"31.6 µM [falling, single point]"
O=C(CC1(O)C(=O)N(CCc2ccccc2)c2ccc(Br)cc21)c1ccc(F)cc1 (centres undefined),AC50,[1],"15.8 µM [falling, partial curve]"
O=C1c2ccccc2C(Nc2ccc(F)c(Cl)c2)N1c1ccccn1 (centres undefined),AC50,[1],"12.6 µM [falling, partial curve]"
Nc1c(C(=O)NCc2ccc(Cl)cc2Cl)nnn1Cc1ccc(Br)cc1,AC50,[1],"10 µM [falling, partial curve]"
COC(=O)c1ccc(NC(=O)CN2CCN(c3cccc(Cl)c3)CC2)cc1,AC50,[1],"25.1 µM [falling, partial curve]"
CCn1c(SCCOc2ccc(Cl)cc2)nnc1-c1cccs1,AC50,[1],"39.8 µM [falling, single point]"
O=C1c2ccccc2C(=O)N1CCSc1nnc(-c2ccco2)n1Cc1ccccc1,AC50,[1],"10 µM [falling, partial curve]"
Cc1ccc(S(=O)(=O)NCC2CCC(C(=O)NCc3ccc(F)cc3)CC2)cc1 (centres undefined),AC50,[1],"15.8 µM [falling, partial curve, poor fit]"
CCn1c(SCC(=O)N2CCCc3ccccc32)nnc1-c1c[nH]c2ccccc12,AC50,[1],"15.8 µM [falling, partial curve]"
C#CCSc1nnc(-c2cccc3ccccc23)o1,AC50,[1],"0.631 µM [rising, full curve, poor fit]"
COc1ccc(-c2nc3ccccc3n3c(-c4cccc(C)c4)c4c(=O)n(C)c(=O)n(C)c4c23)cc1,AC50,[1],"2.51 µM [falling, partial curve]"
O=C(CN1C(=O)C2CCCCN2c2ccc(C(=O)N3CCCC3)cc21)NCc1ccccc1 (centres undefined),AC50,[1],"10 µM [falling, partial curve]"
COC(=O)c1ccccc1NC(=O)CSc1nc2sc3c(c2c(=O)[nH]1)CCCC3,AC50,[2],"39.8 µM [rising, single point]"
same,AC50,[3],"31.6 µM [rising, single point]"
CC(=O)NC(=O)NC1OC(=O)C(Cl)=C1Cl (centres undefined),AC50,[1],"39.8 µM [rising, partial curve] [measured here: IkB-luc green channel]"
COc1ccccc1CNc1nc(-c2ccco2)nn1C(=O)c1ccccc1[N+](=O)[O-],AC50,[1],"20 µM [falling, single point]"
CCOc1ccc(NS(=O)(=O)c2ccc3[nH]c(=O)oc3c2)cc1,AC50,[1],"15.8 µM [falling, partial curve]"
COc1ccc(-c2cc(C(F)(F)F)nc(S(=O)(=O)CCCC(=O)Nc3ccccc3C(F)(F)F)n2)cc1OC,AC50,[1],"6.31 µM [falling, partial curve]"
COc1ccc(S(=O)(=O)N2Cc3ccccc3CC2C(=O)Nc2cccc(C)c2)cc1OC (centres undefined),AC50,[1],"15.8 µM [falling, partial curve]"
Cc1cc(=O)n2c(C(=O)Nc3ccc(C)c(C)c3)c(C(=O)Nc3ccccc3)sc2n1,AC50,[1],"3.98 µM [falling, full curve]"
c1cc(Nc2ncnc3sccc23)cc(-c2nnc3n2CCCCC3)c1,AC50,[1],"25.1 µM [falling, single point]"
CCN(C(=O)CSc1nnc(-c2ccc(Cl)cc2)o1)c1ccccc1,AC50,[1],"5.01 µM [falling, partial curve]"
O=C(CSc1nc(-c2ccco2)nc2cc(=O)[nH]n12)Nc1ccccc1Cl,AC50,[1],"20 µM [falling, partial curve]"
CCOC(=O)c1cnc(-n2nc(C)cc2C)nc1NCCc1ccccc1,AC50,[1],"10 µM [falling, partial curve]"
COc1ccccc1CNC(=O)Cn1c(=O)oc2ccccc21,AC50,[1],"10 µM [falling, partial curve]"
Cc1nn(-c2nc3ccccc3[nH]2)c(N)c1-c1ccccc1,AC50,[2],"31.6 µM [rising, single point]"
same,AC50,[3],"12.6 µM [falling, partial curve]"
O=C(CSc1nc2c(c(=O)[nH]1)CCCC2)Nc1cccc(O)c1,AC50,[1],"25.1 µM [falling, single point]"
COCCCNC(=O)C1CCN(c2nnc(-n3cccc3CNc3ccc(C)cc3)s2)CC1,AC50,[1],"39.8 µM [falling, single point]"
COc1cc2[nH]c(=O)n(CCCC(=O)NCc3ccccc3Cl)c(=O)c2cc1OC,AC50,[1],"6.31 µM [falling, full curve]"
COc1ccccc1N1CCN(C(=O)CCSCc2ccccc2F)CC1,AC50,[1],"39.8 µM [falling, single point]"
COc1ccc(S(=O)(=O)Nc2cc(C(C)C)c(O)cc2C)cc1,AC50,[1],"25.1 µM [falling, partial curve]"
Cc1oc(-c2ccccc2F)nc1Cn1c(SCc2ccccc2F)nc2ccncc21,AC50,[1],"10 µM [falling, partial curve]"
COc1ccc(Nc2oc(/C=C/c3ccc(F)cc3)nc2C#N)cc1,AC50,[1],"31.6 µM [falling, single point]"
CC(=O)Nc1ccc(S(=O)(=O)N2CCN(c3cc(C)ccc3C)CC2)cc1,AC50,[1],"10 µM [falling, partial curve]"
Cc1ccc2nc(N3CCN(C(=O)C4COc5ccccc5O4)CC3)sc2c1 (centres undefined),AC50,[1],"25.1 µM [falling, single point]"
COC(=O)c1ccc(CSc2nc3c([nH]c4ccccc43)c(=O)n2-c2cccc(OC)c2)o1,AC50,[1],"15.8 µM [rising, partial curve, poor fit]"
Cc1ccnc(NS(=O)(=O)c2ccc(NC(=O)c3cc(=O)c4ccc(C)c(C)c4o3)cc2)n1,AC50,[1],"15.8 µM [falling, partial curve]"
Cc1ccc(-c2nc(-c3ccccn3)no2)cc1Cl,AC50,[1],"2 µM [falling, full curve]"
COc1ccc(-c2nc3ccccc3o2)cc1NC(=O)c1ccc(N2CCC(C)CC2)c([N+](=O)[O-])c1,AC50,[1],"3.98 µM [rising, partial curve]"
O=C(CN1CCCN(S(=O)(=O)c2ccc(F)cc2)CC1)Nc1ccccc1Br,AC50,[1],"31.6 µM [falling, single point]"
CCc1nc(C)cn1S(=O)(=O)c1cc(Br)c(C)cc1OC,AC50,[1],"20 µM [falling, partial curve]"
Cc1nn(Cc2ccccc2)c(C)c1NC(=O)c1cc(C(C)C)on1,AC50,[1],"25.1 µM [falling, single point]"
Cc1ccc(C(=O)c2cn(Cc3ccc(F)cc3)c3nc(C)ccc3c2=O)cc1,AC50,[1],"31.6 µM [falling, partial curve]"
CCOc1ccc(C(=O)Nc2c(C(N)=O)oc3ccccc23)cc1,AC50,[1],"10 µM [falling, partial curve]"
O=C(CN1C(=O)COc2ccc(S(=O)(=O)Nc3ccccc3)cc21)NCc1ccccc1Cl,AC50,[1],"25.1 µM [falling, single point]"
CCOC(=O)c1ccc(N2C(=O)c3[nH]nc(-c4ccccc4)c3C2c2cccs2)cc1 (centres undefined),AC50,[1],"15.8 µM [falling, partial curve]"
COc1ccc(CCNc2nc(SCc3ccccc3Cl)nc3ccccc23)cc1OC,AC50,[1],"6.31 µM [rising, partial curve, poor fit]"
O=C(CSc1nc2c(c(=O)[nH]1)CN(Cc1ccc(F)cc1)CC2)Nc1cccc(C(F)(F)F)c1,AC50,[1],"10 µM [falling, partial curve]"
Cc1cc(C)nc(-n2nc(C)c3c2NC(=O)CC3c2ccccc2OC(C)C)n1 (centres undefined),AC50,[1],"15.8 µM [falling, partial curve]"
Cc1ccc(S(=O)(=O)NCCC(=O)Nc2nnc(C3CC3)s2)cc1C,AC50,[1],"10 µM [falling, partial curve]"
COC(=O)c1ccccc1NC(=O)c1cc(-c2ccc(OC)c(OC)c2)on1,AC50,[1],"3.16 µM [falling, partial curve]"
COc1ccc(-c2[nH]c(-c3ccccc3)nc2SCC(=O)NC2CCCC2)cc1,AC50,[1],"39.8 µM [falling, partial curve]"
COc1ccc(CCNC(=O)c2cc3c(=O)n(C)c4cc(Cl)ccc4c3s2)cc1OC,AC50,[1],"6.31 µM [rising, full curve]"
COc1ccc(-c2cc(NCc3ccc(C)cc3)n3cnnc3n2)cc1,AC50,[1],"39.8 µM [falling, single point]"
COc1cccc(NC(=O)C(=O)NCCc2sc(-c3cccc(C)c3)nc2C)c1,AC50,[1],"0.398 µM [falling, full curve]"
COc1ccc(Nc2nc(N)nc(CSc3nc4ccccc4s3)n2)cc1,AC50,[1],"25.1 µM [falling, partial curve]"
CCc1ccc(-c2nc(CN3CCCC(C(=O)NCCc4ccc(OC)c(OC)c4)C3)c(C)o2)cc1 (centres undefined),AC50,[1],"12.6 µM [falling, partial curve]"

# Exported with bars between the fields: entries from further up.
structure (smiles) | measurement | setting | value
O=C(CSc1nc(-c2ccco2)nc2cc(=O)[nH]n12)Nc1ccccc1Cl | AC50 | [1] | 20 µM [falling, partial curve]
CCOC(=O)c1cnc(-n2nc(C)cc2C)nc1NCCc1ccccc1 | AC50 | [1] | 10 µM [falling, partial curve]
COc1ccccc1CNC(=O)Cn1c(=O)oc2ccccc21 | AC50 | [1] | 10 µM [falling, partial curve]
Cc1nn(-c2nc3ccccc3[nH]2)c(N)c1-c1ccccc1 | AC50 | [2] | 31.6 µM [rising, single point]
same | AC50 | [3] | 12.6 µM [falling, partial curve]
O=C(CSc1nc2c(c(=O)[nH]1)CCCC2)Nc1cccc(O)c1 | AC50 | [1] | 25.1 µM [falling, single point]
COCCCNC(=O)C1CCN(c2nnc(-n3cccc3CNc3ccc(C)cc3)s2)CC1 | AC50 | [1] | 39.8 µM [falling, single point]
COc1cc2[nH]c(=O)n(CCCC(=O)NCc3ccccc3Cl)c(=O)c2cc1OC | AC50 | [1] | 6.31 µM [falling, full curve]
COc1ccccc1N1CCN(C(=O)CCSCc2ccccc2F)CC1 | AC50 | [1] | 39.8 µM [falling, single point]
COc1ccc(S(=O)(=O)Nc2cc(C(C)C)c(O)cc2C)cc1 | AC50 | [1] | 25.1 µM [falling, partial curve]
Cc1oc(-c2ccccc2F)nc1Cn1c(SCc2ccccc2F)nc2ccncc21 | AC50 | [1] | 10 µM [falling, partial curve]
COc1ccc(Nc2oc(/C=C/c3ccc(F)cc3)nc2C#N)cc1 | AC50 | [1] | 31.6 µM [falling, single point]
CC(=O)Nc1ccc(S(=O)(=O)N2CCN(c3cc(C)ccc3C)CC2)cc1 | AC50 | [1] | 10 µM [falling, partial curve]
Cc1ccc2nc(N3CCN(C(=O)C4COc5ccccc5O4)CC3)sc2c1 (centres undefined) | AC50 | [1] | 25.1 µM [falling, single point]
